In the supplement of paper PMC10849652:
This is one part of the list.

The chains behind the UniProt entries cited, without tags or fusion partners. Where a name states a change or a piece, a line headed by the entry shows the natural chain unless it says otherwise.
UniProt P78381: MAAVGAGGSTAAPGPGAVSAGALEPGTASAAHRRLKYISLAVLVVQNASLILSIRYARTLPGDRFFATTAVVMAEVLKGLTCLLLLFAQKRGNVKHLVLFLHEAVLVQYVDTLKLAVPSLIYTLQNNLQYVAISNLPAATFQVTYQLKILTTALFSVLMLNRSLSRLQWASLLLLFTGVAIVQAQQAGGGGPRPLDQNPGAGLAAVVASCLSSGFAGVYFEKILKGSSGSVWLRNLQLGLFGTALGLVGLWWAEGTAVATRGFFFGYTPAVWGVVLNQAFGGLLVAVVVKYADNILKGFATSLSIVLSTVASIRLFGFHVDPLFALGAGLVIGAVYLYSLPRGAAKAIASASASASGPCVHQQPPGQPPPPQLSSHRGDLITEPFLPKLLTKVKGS
UniProt Q8IXU6: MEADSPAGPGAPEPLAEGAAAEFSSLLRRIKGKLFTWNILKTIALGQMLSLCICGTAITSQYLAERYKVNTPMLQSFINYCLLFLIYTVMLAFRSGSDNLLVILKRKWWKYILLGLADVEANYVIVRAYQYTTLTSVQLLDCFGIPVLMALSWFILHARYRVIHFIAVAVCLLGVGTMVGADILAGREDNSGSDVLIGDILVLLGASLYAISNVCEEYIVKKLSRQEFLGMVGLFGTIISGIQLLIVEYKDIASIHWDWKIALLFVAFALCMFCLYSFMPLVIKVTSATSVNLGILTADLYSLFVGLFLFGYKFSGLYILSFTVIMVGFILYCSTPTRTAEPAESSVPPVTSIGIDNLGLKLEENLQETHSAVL
UniProt P14672: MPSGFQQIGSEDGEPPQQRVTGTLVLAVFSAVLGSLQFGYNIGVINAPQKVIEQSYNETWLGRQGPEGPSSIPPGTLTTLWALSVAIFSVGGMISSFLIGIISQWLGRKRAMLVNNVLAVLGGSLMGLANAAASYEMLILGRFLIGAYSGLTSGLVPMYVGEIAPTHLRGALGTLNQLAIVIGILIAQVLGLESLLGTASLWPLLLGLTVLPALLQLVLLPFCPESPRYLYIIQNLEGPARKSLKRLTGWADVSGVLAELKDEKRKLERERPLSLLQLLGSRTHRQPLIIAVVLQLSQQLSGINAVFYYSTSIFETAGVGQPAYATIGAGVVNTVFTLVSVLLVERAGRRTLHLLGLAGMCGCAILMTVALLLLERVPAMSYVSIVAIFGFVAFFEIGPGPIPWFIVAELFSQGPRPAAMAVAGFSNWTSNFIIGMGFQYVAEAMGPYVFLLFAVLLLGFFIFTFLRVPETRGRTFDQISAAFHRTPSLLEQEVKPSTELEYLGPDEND
UniProt P78383: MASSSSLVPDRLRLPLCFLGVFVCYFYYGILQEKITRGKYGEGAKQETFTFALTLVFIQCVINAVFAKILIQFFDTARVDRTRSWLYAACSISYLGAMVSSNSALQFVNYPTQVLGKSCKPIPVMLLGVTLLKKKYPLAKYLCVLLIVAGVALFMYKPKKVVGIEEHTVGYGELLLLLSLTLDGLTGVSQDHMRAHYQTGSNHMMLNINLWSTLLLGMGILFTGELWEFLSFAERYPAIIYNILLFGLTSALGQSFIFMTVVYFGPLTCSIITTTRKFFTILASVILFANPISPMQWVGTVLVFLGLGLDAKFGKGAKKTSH
UniProt Q6PCB7: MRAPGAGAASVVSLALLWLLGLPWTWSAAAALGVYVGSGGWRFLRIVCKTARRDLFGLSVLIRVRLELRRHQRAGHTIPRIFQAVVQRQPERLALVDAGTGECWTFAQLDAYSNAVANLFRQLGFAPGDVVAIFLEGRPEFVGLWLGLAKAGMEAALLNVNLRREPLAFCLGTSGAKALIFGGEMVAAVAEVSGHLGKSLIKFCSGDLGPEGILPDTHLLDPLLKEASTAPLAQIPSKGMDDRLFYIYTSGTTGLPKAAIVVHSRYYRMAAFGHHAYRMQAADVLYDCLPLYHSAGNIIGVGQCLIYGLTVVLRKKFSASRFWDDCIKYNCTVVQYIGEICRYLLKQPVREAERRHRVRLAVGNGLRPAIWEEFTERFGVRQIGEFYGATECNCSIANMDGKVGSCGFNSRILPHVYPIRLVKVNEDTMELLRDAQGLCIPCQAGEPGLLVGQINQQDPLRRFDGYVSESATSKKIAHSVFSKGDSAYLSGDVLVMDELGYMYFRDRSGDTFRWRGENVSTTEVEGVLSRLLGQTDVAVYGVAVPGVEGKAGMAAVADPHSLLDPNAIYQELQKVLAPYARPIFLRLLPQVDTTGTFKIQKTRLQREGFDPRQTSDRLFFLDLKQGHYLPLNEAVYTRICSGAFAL
UniProt Q9UJS0: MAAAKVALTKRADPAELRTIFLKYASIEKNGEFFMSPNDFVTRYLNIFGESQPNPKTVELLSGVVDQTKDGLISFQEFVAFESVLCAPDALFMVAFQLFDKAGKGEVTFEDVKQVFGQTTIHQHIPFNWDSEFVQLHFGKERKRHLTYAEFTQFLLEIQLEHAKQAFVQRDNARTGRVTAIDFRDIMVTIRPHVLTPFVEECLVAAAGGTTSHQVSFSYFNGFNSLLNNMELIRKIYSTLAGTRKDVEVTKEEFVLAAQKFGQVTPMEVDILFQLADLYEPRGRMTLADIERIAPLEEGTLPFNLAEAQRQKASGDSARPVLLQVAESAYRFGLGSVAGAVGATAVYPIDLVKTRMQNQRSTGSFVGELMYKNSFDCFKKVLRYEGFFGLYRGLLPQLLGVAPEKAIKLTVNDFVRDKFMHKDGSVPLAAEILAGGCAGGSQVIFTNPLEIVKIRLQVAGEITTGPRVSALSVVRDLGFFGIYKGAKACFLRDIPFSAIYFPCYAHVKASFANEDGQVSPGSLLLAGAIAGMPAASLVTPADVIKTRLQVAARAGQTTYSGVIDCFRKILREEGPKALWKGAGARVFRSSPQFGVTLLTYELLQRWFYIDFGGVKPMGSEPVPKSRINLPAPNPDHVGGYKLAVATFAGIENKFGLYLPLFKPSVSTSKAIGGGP
UniProt Q8N1S5: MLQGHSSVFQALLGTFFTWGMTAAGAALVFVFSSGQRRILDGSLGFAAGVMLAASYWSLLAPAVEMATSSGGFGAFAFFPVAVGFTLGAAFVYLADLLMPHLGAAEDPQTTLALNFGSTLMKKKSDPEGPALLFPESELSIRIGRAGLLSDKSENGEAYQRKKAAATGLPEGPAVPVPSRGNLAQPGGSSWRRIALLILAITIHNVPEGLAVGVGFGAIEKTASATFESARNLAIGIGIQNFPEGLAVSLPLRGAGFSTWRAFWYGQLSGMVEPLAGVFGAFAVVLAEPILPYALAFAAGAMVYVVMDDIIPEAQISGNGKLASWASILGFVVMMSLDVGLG
UniProt Q9NP59: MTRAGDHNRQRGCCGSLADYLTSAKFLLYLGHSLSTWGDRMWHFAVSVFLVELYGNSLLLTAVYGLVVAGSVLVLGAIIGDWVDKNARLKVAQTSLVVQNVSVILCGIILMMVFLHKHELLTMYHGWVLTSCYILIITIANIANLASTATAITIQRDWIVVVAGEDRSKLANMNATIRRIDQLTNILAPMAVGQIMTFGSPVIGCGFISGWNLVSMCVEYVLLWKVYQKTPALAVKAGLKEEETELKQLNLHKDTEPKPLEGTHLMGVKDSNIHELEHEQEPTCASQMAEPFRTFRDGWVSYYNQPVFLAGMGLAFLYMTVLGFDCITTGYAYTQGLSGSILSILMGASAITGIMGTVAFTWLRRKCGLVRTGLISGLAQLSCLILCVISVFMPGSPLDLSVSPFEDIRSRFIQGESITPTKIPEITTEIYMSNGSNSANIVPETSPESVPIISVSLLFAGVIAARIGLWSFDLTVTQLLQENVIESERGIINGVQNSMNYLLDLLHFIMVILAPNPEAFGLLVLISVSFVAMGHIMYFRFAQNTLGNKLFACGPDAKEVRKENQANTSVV
UniProt Q9BZD2: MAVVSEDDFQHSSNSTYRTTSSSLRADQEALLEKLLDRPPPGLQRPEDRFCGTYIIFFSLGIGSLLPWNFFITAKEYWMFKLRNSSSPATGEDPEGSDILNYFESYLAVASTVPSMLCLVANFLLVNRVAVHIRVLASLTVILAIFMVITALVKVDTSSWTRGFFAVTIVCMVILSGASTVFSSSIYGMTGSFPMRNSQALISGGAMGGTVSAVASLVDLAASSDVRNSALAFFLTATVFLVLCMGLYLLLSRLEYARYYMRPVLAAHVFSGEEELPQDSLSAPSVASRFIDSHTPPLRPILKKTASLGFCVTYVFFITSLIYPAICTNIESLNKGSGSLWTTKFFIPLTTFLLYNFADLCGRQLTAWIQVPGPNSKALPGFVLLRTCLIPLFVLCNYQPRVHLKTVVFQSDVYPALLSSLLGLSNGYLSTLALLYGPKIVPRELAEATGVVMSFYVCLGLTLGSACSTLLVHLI
UniProt Q6NT16: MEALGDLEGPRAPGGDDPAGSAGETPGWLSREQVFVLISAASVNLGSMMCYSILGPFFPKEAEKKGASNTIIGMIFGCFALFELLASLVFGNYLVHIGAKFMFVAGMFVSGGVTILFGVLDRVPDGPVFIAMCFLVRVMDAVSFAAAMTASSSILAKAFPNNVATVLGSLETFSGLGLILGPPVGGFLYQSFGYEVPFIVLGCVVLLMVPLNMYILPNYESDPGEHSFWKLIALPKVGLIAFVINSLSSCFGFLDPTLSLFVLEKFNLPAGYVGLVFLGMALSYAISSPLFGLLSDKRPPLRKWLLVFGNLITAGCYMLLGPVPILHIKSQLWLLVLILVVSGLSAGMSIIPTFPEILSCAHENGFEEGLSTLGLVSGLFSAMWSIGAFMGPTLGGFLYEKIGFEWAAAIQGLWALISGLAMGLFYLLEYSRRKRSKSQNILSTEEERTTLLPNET
UniProt Q9BV35: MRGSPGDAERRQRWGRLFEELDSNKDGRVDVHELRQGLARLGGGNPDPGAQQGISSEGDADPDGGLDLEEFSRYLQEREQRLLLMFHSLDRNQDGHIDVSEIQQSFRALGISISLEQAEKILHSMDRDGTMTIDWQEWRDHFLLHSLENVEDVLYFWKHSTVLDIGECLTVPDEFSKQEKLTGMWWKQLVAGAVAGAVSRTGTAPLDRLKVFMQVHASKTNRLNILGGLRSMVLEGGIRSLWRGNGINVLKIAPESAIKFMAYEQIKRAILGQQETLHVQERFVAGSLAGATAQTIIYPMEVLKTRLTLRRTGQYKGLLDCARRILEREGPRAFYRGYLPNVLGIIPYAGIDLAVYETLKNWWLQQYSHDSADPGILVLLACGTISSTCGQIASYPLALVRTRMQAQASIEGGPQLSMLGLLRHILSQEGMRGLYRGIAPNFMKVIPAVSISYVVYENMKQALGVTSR
UniProt O60779: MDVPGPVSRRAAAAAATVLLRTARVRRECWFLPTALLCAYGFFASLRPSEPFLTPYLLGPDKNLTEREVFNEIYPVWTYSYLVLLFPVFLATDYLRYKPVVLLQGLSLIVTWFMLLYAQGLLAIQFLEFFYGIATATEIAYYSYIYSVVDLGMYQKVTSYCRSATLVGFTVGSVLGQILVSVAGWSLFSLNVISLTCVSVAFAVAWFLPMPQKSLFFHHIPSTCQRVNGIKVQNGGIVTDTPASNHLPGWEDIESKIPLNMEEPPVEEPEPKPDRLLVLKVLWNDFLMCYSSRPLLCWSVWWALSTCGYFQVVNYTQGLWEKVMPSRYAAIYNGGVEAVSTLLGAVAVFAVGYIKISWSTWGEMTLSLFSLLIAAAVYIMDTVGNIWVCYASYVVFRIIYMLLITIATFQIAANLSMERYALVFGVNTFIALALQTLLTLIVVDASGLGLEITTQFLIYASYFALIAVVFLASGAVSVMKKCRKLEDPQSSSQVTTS
UniProt Q96A46: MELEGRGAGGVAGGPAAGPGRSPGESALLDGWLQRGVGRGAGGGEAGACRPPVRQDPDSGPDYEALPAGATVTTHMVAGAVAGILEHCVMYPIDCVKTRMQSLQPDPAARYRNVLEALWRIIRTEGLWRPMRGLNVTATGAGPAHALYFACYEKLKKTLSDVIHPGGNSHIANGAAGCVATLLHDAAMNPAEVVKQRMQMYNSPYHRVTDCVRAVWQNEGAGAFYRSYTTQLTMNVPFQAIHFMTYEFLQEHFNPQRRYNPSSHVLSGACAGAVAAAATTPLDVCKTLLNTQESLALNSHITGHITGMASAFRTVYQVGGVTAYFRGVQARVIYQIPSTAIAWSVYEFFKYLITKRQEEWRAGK
UniProt Q9NQQ7: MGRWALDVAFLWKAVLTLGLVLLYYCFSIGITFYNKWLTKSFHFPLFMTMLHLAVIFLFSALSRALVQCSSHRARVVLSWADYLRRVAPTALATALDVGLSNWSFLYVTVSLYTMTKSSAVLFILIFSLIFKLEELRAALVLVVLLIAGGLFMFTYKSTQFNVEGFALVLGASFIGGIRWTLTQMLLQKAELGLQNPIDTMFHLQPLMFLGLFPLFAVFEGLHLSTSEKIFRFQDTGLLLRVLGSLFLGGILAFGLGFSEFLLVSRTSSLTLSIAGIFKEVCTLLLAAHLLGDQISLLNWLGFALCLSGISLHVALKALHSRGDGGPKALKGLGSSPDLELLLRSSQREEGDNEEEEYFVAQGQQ

Columns and labels:
Assay in all cases: log2 fold change, soluble protein after heating vs DMSO (PISA); higher = thermal stabilisation; K562 cells, 10 uM, 30 min; active = over 0.2 and 3.5 SD of the protein, either way, in both replicates (recomputed)
[1] = compound: NC(=O)Nc1cc(-c2cccc(F)c2)sc1C(=O)N[C@H]1CCCNC1
How it was run: (§1)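 K562 cells at 2×10^6 cells/mL were treated with 10 μM compound for 30 min. Aliquots were heated for 3 min across 48°C-58°C, pooled, and extracted in PBS with 0.5% NP-40 at 4°C; soluble protein was the supernatant after 21,000xg for 90 min. Soluble protein was quantified by TMTpro 16plex LC-MS/MS with channel sums equalised, and reported as log2 fold change in thermal stability against DMSO controls, with values from duplicates.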

[2] = compound: NC(=O)c1cnc(N[C@@H]2CCCC[C@@H]2N)nc1Nc1cccc(-n2nccn2)c1
How it was run: as §1

[3] = compound: NC1(c2ccc(-c3nc4ccn5c(=O)[nH]nc5c4cc3-c3ccccc3)cc2)CCC1
How it was run: as §1

[4] = compound: NCC(=O)Nc1ccc(-n2nc(C(F)(F)F)cc2-c2ccc3c(ccc4ccccc43)c2)cc1
How it was run: as §1

entinostat = compound: Nc1ccccc1NC(=O)c1ccc(CNC(=O)OCc2cccnc2)cc1 [entinostat]
How it was run: as §1

citarinostat = compound: O=C(CCCCCCNC(=O)c1cnc(N(c2ccccc2)c2ccccc2Cl)nc1)NO [citarinostat]
How it was run: as §1

silmitasertib = compound: O=C(O)c1ccc2c(c1)nc(Nc1cccc(Cl)c1)c1ccncc12 [silmitasertib]
How it was run: as §1

[5] = compound: O=C1NC(=O)C(c2cnc3ccccn23)=C1c1cn2c3c(cc(F)cc13)CN(C(=O)N1CCCCC1)CC2
How it was run: as §1

[6] = compound: c1cc(OCCN2CCCCC2)cc(-c2n[nH]c3ccc(-c4nnc[nH]4)cc23)c1
How it was run: as §1

vorinostat = compound: O=C(CCCCCCC(=O)Nc1ccccc1)NO [vorinostat]
How it was run: as §1

Measured: log2 fold change

SLC11A2 isoform 3 (UniProt P49281)
inactive: [1] -0.27 | [2] -0.103 | [3] -0.08 | [4] 0.049 | entinostat -0.049 | citarinostat 0.025 | silmitasertib 0.131 | [5] -0.047 | [6] -0.214

SLC35E3 (UniProt Q7Z769)
inactive: [1] -0.184 | [2] 0.027 | entinostat 0.153 | [5] 0.011

SLC35A2 isoform 4 (UniProt P78381)
inactive: [1] -0.004 | [2] -0.17 | [3] -0.007 | [4] 0 | entinostat -0.025 | vorinostat -0.034 | citarinostat -0.004 | silmitasertib 0.019 | [5] 0.028 | [6] -0.039

SLC6A9 (UniProt P48067)
inactive: [1] 0.011 | [2] 0.096 | [3] 0.131 | [4] 0.034 | entinostat -0.013 | vorinostat -0.054 | citarinostat 0.002 | silmitasertib -0.01 | [6] -0.134

SLC27A2 (UniProt O14975)
inactive: [1] -0.068 | [2] -0.091 | [3] 0.007 | [4] -0.047 | entinostat -0.023 | vorinostat -0.053 | citarinostat 0.059 | silmitasertib 0.083 | [5] 0.247 | [6] -0.035

SLC35F2 (UniProt Q8IXU6)
inactive: [1] -0.037 | [2] 0.017 | [3] -0.018 | [4] 0.13 | entinostat 0.015 | vorinostat 0.025 | citarinostat 0.098 | silmitasertib -0.001 | [5] 0.04 | [6] -0.112

SLC17A5 (UniProt Q9NRA2)
inactive: [1] 0.08 | [2] -0.013 | entinostat 0.008 | citarinostat -0.044 | [6] -0.063

SLC30A7 (UniProt Q8NEW0)
inactive: [1] -0.035 | [2] 0.013 | [3] -0.276 | [4] -0.178 | entinostat 0.024 | vorinostat -0.024 | citarinostat -0.028 | silmitasertib 0.039 | [5] 0.025 | [6] -0.032

SLC25A37 (UniProt Q9NYZ2)
inactive: [1] -0.016 | [2] 0.028 | [3] 0.009 | [4] 0.032 | entinostat -0.024 | vorinostat 0.044 | citarinostat -0.002 | silmitasertib 0.095 | [5] -0.09 | [6] -0.046

SLC2A4 (UniProt P14672)
inactive: [1] -0.005 | [2] 0.019 | [3] 0.05 | entinostat -0.094 | vorinostat 0.013 | citarinostat 0.078 | silmitasertib 0.051 | [6] -0.036

SLC35B1 isoform 2 (UniProt P78383)
inactive: [1] -0.054 | [3] -0.029 | [4] -0.057 | entinostat 0.041 | citarinostat -0.052 | silmitasertib 0.261 | [5] 0.138 | [6] -0.327

SLC25A36 (UniProt Q96CQ1)
inactive: [1] 0.131 | [2] 0.035 | [3] 0.015 | [4] -0.123 | entinostat 0.036 | vorinostat 0.003 | citarinostat 0.063 | silmitasertib 0.106 | [5] 0.027 | [6] 0.028

SLC35F6 (UniProt Q8N357)
inactive: [1] -0.068 | [2] 0.045 | [3] -0.161 | [4] 0.005 | entinostat -0.185 | citarinostat -0.026 | silmitasertib 0.023 | [5] 0.074 | [6] 0.025

SLC27A1 (UniProt Q6PCB7)
inactive: [1] 0.026 | [2] -0.012 | [3] -0.016 | [4] 0.038 | entinostat -0.013 | silmitasertib -0.039 | [5] 0.014

SLC25A13 isoform 2 (UniProt Q9UJS0)
inactive: [1] -0.008 | [2] -0.048 | [3] -0.024 | [4] -0.012 | entinostat 0.001 | vorinostat -0.011 | citarinostat 0.033 | silmitasertib -0.027 | [5] -0.015 | [6] -0.03

SLC38A2 (UniProt Q96QD8)
inactive: [1] -0.023 | [2] -0.046 | [3] -0.037 | [4] -0.12 | entinostat 0.018 | citarinostat 0.025 | silmitasertib 0.054 | [5] 0.014 | [6] -0.088

SLC5A3 (UniProt P53794)
inactive: [1] -0.061 | [2] 0.088 | [3] 0.027 | [4] 0.04 | entinostat -0.028 | vorinostat -0.09 | citarinostat 0.013 | silmitasertib 0.026 | [5] 0.013 | [6] 0.002

SLC38A10 (UniProt Q9HBR0)
inactive: [1] 0.019 | [2] -0.014 | [3] 0.023 | [4] 0.027 | entinostat -0.033 | vorinostat 0.029 | citarinostat 0.007 | silmitasertib 0.006 | [5] -0.031 | [6] -0.02

SLC2A13 (UniProt Q96QE2)
inactive: [1] 0.007 | [2] 0.131 | [4] 0.038 | entinostat 0.114 | vorinostat -0.156 | citarinostat 0.078 | [5] -0.039 | [6] 0.042

SLC35B4 (UniProt Q969S0)
inactive: [1] -0.006 | [2] -0.052 | [3] -0.094 | [4] -0.072 | entinostat -0.002 | citarinostat -0.009 | silmitasertib -0.034 | [5] -0.069 | [6] -0.06

SLC39A11 (UniProt Q8N1S5)
inactive: [1] 0 | [2] -0.027 | [3] -0.085 | [4] 0.024 | entinostat -0.016 | vorinostat -0.063 | citarinostat -0.059 | silmitasertib 0.078 | [6] -0.122

SLC40A1 (UniProt Q9NP59)
inactive: [1] -0.094 | [2] 0.048 | [3] 0.044 | [4] -0.147 | entinostat -0.018 | vorinostat -0.088 | citarinostat 0.011 | silmitasertib 0.111 | [5] -0.099 | [6] -0.097

SLC29A3 (UniProt Q9BZD2)
inactive: [1] -0.098 | [2] -0.124 | [3] -0.304 | [4] 0.04 | entinostat -0.022 | citarinostat -0.123 | silmitasertib 0.047 | [5] 0.142 | [6] -0.033

SLC18B1 (UniProt Q6NT16)
inactive: [1] -0.003 | [2] 0.022 | [3] -0.093 | [4] -0.025 | entinostat 0.038 | vorinostat -0.162 | citarinostat 0.019 | silmitasertib 0.076 | [5] 0.044 | [6] -0.044

SLC25A23 isoform 3 (UniProt Q9BV35)
inactive: [1] -0.073 | [2] -0.15 | [3] -0.157 | [4] 0.053 | entinostat -0.046 | vorinostat -0.038 | citarinostat 0.083 | silmitasertib 0.191 | [6] 0.076

SLC30A9 (UniProt Q6PML9)
inactive: [1] -0.125 | [2] 0.002 | [3] -0.086 | [4] -0.048 | entinostat 0.021 | vorinostat 0.004 | citarinostat 0.038 | silmitasertib 0.049 | [5] -0.061 | [6] -0.088

SLC19A2 (UniProt O60779)
inactive: [1] 0.095 | [2] 0.006 | [4] -0.003 | entinostat 0.069 | citarinostat -0.02 | [5] -0.819 | [6] 0.177

SLC25A28 (UniProt Q96A46)
inactive: [1] -0.047 | entinostat 0.105

Two records picked at random from those above, as already listed:
SLC18B1 (UniProt Q6NT16)
inactive: [1] -0.003 | [2] 0.022 | [3] -0.093 | [4] -0.025 | entinostat 0.038 | vorinostat -0.162 | citarinostat 0.019 | silmitasertib 0.076 | [5] 0.044 | [6] -0.044

SLC19A2 (UniProt O60779)
inactive: [1] 0.095 | [2] 0.006 | [4] -0.003 | entinostat 0.069 | citarinostat -0.02 | [5] -0.819 | [6] 0.177

Next records follow.

SLC3A2 (UniProt F5H867)
inactive: [1] -0.125 | [3] -0.057 | entinostat -0.084 | vorinostat -0.079 | silmitasertib 0.02 | [5] -0.093

SLC66A1 (UniProt Q6ZP29)
inactive: [3] 0 | citarinostat -0.141 | silmitasertib 0.261 | [6] -0.038

SLC22A5 isoform 3 (UniProt O76082)
inactive: [4] 0.056 | vorinostat 0.035 | [5] 0.352

SLC35C2 isoform 3 (UniProt Q9NQQ7)
inactive: [2] -0.136 | citarinostat 0.046 | [5] -0.138 | [6] 0.117

SLC15A4 (UniProt Q8N697)
inactive: [2] -0.054 | [3] -0.02 | [4] 0.011 | citarinostat 0.026 | silmitasertib -0.028 | [6] -0.017
